Record: PubChem BioAssay AID1259331 (Drosophila RNAi Screening Center, 2017)

- Screen: 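Genes whose knock-down changes cell survival under toxic zinc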 (primary screen)
- System: Drosophila S2R+ cells
- Knock-down reagent: long dsRNA against Drosophila genes
- Timing: 5 days (4 days knock-down, then 1 day zinc)
- Challenge: zinc chloride at 15 mM final level for 1 day
- Read-out: 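Total cellular ATP measured by luciferase luminescence as a viability proxy, turned into Z scores from three plate copies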
- Direction: mean Z score: higher = more ATP than other wells, better survival under zinc; ATP luminescence: higher = more ATP, more viable cells
- Active means: 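Hit when the absolute Z score is greater than 1.5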
- Calls: active = hit, ATP up or down; inactive = not a hit
In all, the deposit lists about 3,100 reagents; shown is an unselected part. 126 of them (4.1%) were called active. 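Calls are per reagent; zinc was so toxic that few knock-downs lowered ATP further, so most hits raise ATP.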 Raw values are not corrected between plates. A number with no mark means an inactive call. The numbers tell different reagents against one gene apart. Not stated in the record: the amount of reagent.

Silencing of Tsp42Eg (Tetraspanin 42Eg) gave: mean Z score 0.0472; ATP luminescence, replicate 1 = 33387; ATP luminescence, replicate 2 = 31159.
For Loxl2 (Lysyl oxidase-like 2) the deposit lists mean Z score -0.28; ATP luminescence, replicate 1 = 28108; ATP luminescence, replicate 2 = 29153.
For Gr22c (Gustatory receptor 22c) the deposit lists mean Z score 0.0491; ATP luminescence, replicate 1 = 65471; ATP luminescence, replicate 2 = 58768.
Against CG32204 #1, the values are mean Z score 0.679; ATP luminescence, replicate 1 = 73821; ATP luminescence, replicate 2 = 80870.
CG32204 #2 showed mean Z score 1.24; ATP luminescence, replicate 1 = 82294; ATP luminescence, replicate 2 = 78777.
Against Gr32a (Gustatory receptor 32a) #1, the entry reads mean Z score -0.532; ATP luminescence, replicate 1 = 44377; ATP luminescence, replicate 2 = 41621.
Gr32a (Gustatory receptor 32a) #2 showed mean Z score -0.0479; ATP luminescence, replicate 1 = 40738; ATP luminescence, replicate 2 = 59287.
For MFS9 (Major Facilitator Superfamily Transporter 9), the values are mean Z score -0.356; ATP luminescence, replicate 1 = 40340; ATP luminescence, replicate 2 = 41599.

Entries listed so far whose gene name starts with G or g:
Gr22c (Gustatory receptor 22c) → mean Z score: 0.0491; ATP luminescence, replicate 1: 65471; ATP luminescence, replicate 2: 58768
Gr32a (Gustatory receptor 32a) #1 → mean Z score: -0.532; ATP luminescence, replicate 1: 44377; ATP luminescence, replicate 2: 41621
Gr32a (Gustatory receptor 32a) #2 → mean Z score: -0.0479; ATP luminescence, replicate 1: 40738; ATP luminescence, replicate 2: 59287

Further records follow:
With knock-down of CG33303 #1, the record shows mean Z score 0.0674; ATP luminescence, replicate 1 = 49882; ATP luminescence, replicate 2 = 49109.
CG33303 #2 scored mean Z score 0.102; ATP luminescence, replicate 1 = 55933; ATP luminescence, replicate 2 = 59500.
CG31523 #1 gave mean Z score 0.161; ATP luminescence, replicate 1 = 68229; ATP luminescence, replicate 2 = 69213.
Depletion of CG31523 #2 resulted in: mean Z score -0.344; ATP luminescence, replicate 1 = 56534; ATP luminescence, replicate 2 = 46366.
